Results: paper PMC11338131
Read-outs that look alike come from different tables or passages of the source. Results are given in words; binding and its absence hold for the method and conditions named. In cells and extracts the contact can be indirect. A yes stands for co-enrichment or nearness to the bait. Other partners may have been found.

The chains behind the UniProt entries cited, without tags or fusion partners. Where a name states a change or a piece, a line headed by the entry shows the natural chain unless it says otherwise.
UniProt Q12948: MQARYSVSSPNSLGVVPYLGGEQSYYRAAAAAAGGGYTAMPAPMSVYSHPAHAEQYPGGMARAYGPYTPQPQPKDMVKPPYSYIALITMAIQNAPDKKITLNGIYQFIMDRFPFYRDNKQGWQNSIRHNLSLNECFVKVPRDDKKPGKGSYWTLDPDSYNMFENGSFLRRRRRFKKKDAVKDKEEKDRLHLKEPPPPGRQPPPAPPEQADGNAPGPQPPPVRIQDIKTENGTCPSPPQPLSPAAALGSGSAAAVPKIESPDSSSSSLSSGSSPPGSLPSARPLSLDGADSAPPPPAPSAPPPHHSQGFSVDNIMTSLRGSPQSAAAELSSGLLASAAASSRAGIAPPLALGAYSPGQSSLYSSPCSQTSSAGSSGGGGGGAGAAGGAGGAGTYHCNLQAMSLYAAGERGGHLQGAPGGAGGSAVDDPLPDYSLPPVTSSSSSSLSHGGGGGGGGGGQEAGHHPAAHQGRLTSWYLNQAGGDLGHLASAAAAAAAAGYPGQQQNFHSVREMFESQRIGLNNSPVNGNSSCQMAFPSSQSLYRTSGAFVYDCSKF
UniProt Q13263: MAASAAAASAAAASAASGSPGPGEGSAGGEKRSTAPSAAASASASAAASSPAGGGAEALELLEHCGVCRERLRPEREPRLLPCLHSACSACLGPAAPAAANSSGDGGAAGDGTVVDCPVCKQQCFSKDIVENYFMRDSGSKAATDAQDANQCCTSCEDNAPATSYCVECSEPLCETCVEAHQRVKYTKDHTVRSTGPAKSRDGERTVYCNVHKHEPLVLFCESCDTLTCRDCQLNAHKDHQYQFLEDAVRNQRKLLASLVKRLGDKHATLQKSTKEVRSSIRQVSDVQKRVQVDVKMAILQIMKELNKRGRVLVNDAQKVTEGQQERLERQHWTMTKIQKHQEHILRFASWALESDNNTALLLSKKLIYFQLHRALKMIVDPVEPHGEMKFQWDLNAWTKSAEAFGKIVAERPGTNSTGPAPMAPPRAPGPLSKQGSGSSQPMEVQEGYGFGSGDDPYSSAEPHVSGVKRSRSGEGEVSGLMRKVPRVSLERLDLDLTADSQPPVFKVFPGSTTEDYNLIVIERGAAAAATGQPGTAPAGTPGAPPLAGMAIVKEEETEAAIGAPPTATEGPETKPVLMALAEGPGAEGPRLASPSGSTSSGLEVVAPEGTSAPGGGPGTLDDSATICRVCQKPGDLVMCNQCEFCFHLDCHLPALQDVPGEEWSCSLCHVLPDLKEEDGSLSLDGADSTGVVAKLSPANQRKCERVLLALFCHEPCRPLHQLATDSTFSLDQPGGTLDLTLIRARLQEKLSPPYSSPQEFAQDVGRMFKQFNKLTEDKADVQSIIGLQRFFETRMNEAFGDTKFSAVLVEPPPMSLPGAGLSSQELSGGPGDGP
UniProt P61956: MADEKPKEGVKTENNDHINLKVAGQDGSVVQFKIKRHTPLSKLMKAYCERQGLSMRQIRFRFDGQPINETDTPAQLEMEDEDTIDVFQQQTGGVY

How the values were obtained:
[1] = biological target: FOXC1 (human (endogenous in BT-549 and Hs578t)) (UniProt Q12948); assay: affinity purification with mass spectrometry; RIME: BT-549 and Hs578t cells crosslinked with 2 mM DSG and 1% formaldehyde; endogenous FOXC1 precipitated with FOXC1 antibody; beads washed 10 times in RIPA buffer; on-bead tryptic digest, LC/MS-MS; two biological replicates; proteins found in the IgG control subtracted
[2] = biological target: FOXC1 (human (endogenous in BT-549 and Hs578t)) (UniProt Q12948); assay: as above; remark: listed apart in the source

binding [1]	binding [2]	Molecule
binds		TRIM28 (from UniProt Q13263 1-835)
binds		SUMO2 (from UniProt P61956)
	binds	NR2F2 (protein, UniProt P24468 1-414) MAMVVSTWRDPQDEVPGSQGSQASQAPPVPGPPPGAPHTPQTPGQGGPASTPAQTAAGGQGGPGGPGSDKQQQQQHIECVVCGDKSSGKHYGQFTCEGCKSFFKRSVRRNLSYTCRANRNCPIDQHHRNQCQYCRLKKCLKVGMRREAVQRGRMPPTQPTHGQFALTNGDPLNCHSYLSGYISLLLRAEPYPTSRFGSQCMQPNNIMGIENICELAARMLFSAVEWARNIPFFPDLQITDQVALLRLTWSELFVLNAAQCSMPLHVAPLLAAAGLHASPMSADRVVAFMDHIRIFQEQVEKLKALHVDSAEYSCLKAIVLFTSDACGLSDVAHVESLQEKSQCALEEYVRSQYPNQPTRFGKLLLRLPSLRTVSSSVIEQLFFVRLVGKTPIETLIRDMLLSGSSFNWPYMAIQ
